The supplement of paper PMC10849652
The other results are listed elsewhere or left out.

Chains of the proteins cited; added tags and fusions are not shown. Lines headed by an entry give the natural chain unless they say otherwise; changes in a name come on top.
UniProt P28288: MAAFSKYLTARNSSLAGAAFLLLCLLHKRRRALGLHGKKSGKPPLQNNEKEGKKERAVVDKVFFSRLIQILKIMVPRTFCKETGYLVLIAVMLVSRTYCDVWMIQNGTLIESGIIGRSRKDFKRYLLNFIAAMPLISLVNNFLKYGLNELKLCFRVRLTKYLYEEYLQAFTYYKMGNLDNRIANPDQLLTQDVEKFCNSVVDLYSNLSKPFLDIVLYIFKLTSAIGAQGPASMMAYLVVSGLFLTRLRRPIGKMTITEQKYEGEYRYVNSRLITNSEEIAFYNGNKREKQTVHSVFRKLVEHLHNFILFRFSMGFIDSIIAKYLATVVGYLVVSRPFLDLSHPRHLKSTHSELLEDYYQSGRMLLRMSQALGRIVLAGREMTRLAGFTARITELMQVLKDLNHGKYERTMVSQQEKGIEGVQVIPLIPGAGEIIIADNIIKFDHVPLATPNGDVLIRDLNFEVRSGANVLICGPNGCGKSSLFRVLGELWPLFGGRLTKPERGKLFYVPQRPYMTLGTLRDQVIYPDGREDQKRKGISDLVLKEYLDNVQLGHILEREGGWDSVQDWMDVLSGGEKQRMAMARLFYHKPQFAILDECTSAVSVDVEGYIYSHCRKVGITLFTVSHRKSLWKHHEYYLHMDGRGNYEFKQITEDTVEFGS
UniProt Q5JTZ9, whole entry, looked up: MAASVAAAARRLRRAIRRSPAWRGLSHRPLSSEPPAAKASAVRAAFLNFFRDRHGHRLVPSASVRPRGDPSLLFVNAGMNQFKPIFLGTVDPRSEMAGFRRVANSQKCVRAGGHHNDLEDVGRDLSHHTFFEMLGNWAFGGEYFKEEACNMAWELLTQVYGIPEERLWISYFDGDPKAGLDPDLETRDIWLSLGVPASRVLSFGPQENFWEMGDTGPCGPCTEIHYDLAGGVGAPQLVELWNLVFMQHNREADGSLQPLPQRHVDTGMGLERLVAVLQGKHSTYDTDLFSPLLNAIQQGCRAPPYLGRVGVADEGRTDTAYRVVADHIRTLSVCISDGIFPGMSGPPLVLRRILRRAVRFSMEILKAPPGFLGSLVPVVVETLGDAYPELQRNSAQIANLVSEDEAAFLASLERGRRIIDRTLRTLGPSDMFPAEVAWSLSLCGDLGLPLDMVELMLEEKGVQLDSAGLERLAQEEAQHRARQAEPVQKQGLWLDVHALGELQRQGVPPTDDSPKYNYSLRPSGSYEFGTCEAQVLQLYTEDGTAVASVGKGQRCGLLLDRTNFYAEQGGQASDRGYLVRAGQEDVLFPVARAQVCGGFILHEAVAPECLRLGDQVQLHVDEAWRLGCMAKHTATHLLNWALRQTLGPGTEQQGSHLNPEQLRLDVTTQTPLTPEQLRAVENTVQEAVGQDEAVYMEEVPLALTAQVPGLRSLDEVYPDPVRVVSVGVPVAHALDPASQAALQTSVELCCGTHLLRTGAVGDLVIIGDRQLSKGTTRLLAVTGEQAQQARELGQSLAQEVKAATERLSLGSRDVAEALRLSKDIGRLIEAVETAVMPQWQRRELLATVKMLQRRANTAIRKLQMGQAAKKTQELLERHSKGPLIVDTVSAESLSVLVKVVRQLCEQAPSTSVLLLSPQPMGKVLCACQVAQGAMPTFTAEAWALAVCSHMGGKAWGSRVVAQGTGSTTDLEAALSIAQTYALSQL
UniProt P33527: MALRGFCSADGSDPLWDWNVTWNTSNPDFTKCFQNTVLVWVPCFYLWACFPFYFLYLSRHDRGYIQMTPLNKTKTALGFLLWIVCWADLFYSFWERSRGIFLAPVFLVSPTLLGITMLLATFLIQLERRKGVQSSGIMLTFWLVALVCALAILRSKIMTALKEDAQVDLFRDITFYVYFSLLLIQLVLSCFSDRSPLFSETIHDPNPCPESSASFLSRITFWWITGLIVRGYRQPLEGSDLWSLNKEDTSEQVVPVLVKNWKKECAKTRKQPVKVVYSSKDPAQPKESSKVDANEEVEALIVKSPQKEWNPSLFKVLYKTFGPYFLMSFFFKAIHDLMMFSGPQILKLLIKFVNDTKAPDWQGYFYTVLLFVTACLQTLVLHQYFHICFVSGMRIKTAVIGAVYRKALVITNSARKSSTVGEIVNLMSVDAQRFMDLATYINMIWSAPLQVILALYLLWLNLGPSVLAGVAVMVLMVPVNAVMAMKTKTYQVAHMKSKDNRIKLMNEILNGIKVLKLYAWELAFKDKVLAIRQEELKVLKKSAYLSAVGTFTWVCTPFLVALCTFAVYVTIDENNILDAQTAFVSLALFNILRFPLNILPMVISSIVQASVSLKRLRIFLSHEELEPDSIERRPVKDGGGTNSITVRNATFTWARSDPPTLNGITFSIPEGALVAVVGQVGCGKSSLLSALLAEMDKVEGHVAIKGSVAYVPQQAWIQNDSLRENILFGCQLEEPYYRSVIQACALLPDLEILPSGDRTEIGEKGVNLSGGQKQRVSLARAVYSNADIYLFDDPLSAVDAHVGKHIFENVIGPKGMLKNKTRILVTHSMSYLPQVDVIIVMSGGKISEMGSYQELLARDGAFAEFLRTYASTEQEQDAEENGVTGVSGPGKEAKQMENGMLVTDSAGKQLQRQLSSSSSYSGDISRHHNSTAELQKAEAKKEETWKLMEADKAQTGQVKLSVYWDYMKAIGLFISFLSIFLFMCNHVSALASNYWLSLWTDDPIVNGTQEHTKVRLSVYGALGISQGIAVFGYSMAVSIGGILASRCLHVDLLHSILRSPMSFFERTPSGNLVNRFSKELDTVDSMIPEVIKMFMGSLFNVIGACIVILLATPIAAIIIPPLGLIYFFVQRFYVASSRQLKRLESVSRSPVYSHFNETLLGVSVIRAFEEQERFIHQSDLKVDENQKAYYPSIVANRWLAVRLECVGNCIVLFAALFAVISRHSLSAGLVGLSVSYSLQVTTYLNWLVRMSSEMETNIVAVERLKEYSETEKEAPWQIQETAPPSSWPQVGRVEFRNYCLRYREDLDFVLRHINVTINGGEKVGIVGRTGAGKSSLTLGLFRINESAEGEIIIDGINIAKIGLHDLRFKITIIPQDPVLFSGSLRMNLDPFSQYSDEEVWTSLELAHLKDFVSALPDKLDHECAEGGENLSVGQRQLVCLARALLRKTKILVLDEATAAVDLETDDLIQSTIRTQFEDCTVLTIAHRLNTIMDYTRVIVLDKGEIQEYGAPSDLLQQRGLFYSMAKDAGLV
UniProt Q8NFV4: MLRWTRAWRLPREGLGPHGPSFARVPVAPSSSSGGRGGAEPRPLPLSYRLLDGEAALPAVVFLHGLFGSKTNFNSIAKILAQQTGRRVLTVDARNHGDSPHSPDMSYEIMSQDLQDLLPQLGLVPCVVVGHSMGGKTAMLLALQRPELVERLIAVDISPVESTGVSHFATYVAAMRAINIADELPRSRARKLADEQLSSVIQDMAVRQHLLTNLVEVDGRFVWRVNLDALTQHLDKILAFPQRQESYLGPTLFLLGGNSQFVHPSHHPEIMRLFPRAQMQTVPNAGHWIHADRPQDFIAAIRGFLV
UniProt O00763, whole entry, looked up: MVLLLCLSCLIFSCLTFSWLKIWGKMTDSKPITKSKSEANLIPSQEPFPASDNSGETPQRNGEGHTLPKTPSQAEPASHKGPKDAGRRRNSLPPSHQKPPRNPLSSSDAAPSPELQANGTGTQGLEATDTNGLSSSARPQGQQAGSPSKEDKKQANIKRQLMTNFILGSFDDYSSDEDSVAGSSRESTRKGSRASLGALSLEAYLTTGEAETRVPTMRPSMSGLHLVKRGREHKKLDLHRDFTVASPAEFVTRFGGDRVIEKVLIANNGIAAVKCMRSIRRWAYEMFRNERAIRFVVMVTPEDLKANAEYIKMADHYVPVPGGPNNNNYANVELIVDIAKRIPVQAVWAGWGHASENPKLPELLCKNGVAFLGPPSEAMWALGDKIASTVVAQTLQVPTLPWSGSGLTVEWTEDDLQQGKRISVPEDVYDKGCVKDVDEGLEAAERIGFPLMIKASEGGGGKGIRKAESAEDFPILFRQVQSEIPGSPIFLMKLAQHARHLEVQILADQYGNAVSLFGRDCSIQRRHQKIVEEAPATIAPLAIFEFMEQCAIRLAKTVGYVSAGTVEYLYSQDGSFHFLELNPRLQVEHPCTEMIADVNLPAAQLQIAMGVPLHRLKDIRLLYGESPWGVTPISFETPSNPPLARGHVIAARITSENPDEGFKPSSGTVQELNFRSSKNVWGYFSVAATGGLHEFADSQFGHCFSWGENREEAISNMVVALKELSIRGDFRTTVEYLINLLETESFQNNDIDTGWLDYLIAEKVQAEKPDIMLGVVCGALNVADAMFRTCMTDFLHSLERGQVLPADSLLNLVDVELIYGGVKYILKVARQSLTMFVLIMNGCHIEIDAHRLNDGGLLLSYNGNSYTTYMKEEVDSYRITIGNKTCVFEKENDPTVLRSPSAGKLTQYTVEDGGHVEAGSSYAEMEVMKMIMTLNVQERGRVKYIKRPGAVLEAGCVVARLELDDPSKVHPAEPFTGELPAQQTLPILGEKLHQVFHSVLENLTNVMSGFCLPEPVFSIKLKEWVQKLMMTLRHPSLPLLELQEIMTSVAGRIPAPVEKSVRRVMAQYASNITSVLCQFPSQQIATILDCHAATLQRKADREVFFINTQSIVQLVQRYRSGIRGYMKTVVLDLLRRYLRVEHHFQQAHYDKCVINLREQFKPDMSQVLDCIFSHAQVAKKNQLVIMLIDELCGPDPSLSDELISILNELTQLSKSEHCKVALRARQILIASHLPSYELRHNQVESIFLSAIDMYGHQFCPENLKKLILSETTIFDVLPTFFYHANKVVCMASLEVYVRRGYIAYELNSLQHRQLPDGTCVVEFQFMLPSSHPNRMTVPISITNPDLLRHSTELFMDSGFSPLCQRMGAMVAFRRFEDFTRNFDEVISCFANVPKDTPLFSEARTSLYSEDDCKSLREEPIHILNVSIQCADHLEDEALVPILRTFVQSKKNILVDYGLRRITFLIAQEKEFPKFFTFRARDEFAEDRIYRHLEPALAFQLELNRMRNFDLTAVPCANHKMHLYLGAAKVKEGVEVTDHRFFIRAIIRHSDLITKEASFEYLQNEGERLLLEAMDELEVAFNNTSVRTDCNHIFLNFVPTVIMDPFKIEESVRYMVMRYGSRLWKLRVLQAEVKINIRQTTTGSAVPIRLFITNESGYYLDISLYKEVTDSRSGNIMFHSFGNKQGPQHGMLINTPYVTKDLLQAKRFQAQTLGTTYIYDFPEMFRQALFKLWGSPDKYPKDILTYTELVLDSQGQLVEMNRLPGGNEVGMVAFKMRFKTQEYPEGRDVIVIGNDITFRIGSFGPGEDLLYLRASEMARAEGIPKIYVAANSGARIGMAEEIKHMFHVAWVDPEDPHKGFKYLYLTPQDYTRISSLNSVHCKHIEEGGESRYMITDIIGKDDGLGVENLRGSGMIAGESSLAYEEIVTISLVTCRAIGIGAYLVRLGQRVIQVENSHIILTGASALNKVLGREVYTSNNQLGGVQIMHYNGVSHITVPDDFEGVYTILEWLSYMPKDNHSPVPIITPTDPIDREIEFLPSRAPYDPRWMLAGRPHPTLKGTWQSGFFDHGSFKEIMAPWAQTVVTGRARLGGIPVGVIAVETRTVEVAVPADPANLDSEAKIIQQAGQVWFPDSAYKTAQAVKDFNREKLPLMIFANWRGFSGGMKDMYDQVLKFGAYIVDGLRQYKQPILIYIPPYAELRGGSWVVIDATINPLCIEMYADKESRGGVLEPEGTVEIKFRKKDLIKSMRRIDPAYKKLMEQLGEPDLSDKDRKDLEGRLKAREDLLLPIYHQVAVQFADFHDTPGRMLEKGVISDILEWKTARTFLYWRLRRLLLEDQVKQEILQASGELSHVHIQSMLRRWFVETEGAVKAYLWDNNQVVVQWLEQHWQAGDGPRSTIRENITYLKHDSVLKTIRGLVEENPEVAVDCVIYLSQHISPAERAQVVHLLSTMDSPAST
UniProt Q53FZ2: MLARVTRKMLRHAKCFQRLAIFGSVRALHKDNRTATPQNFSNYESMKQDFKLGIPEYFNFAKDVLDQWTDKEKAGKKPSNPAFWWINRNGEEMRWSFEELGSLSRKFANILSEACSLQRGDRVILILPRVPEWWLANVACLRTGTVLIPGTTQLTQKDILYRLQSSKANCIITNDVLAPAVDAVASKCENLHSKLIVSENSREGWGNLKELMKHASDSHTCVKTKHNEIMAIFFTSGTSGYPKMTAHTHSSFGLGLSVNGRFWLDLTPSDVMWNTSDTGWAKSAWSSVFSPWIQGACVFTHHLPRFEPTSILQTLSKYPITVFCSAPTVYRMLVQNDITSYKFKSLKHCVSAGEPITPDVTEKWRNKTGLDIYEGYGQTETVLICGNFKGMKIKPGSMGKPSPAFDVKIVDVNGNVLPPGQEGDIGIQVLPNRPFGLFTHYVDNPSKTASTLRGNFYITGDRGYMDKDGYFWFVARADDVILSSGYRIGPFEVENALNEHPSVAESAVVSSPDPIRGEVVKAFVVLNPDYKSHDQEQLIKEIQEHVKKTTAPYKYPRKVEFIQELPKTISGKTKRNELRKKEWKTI

compound: CC1=C2C(=CC=C1)N=C(N(C2=O)C3=CC=CC=C3C)CN4C=NC5=C(N=CN=C54)N; assay: log2 fold change, soluble protein after heating vs DMSO (PISA); higher = thermal stabilisation; K562 cells, 10 uM, 30 min; active = over 0.2 and 3.5 SD of the protein, either way, in both replicates (recomputed)
Outline: (§1)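 Values are thermal stability changes relative to control samples and are taken from duplicates. They are stated as log2 fold changes. Before quantification by TMTpro 16plex LC-MS/MS with equalised channel sums, K562 cells at 2×10^6 cells/mL were treated with 10 μM compound for 30 min, heated in aliquots for 3 min across 48°C-58°C, pooled, extracted in PBS with 0.5% NP-40 at 4°C, and centrifuged at 21,000xg for 90 min to give the soluble supernatant.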

| Target | log2 fold change |
| --- | --- |
| ADAM17 (UniProt P78536) | inactive: -0.01 |
| ABCD3 (UniProt P28288) | inactive: 0.004 |
| AARS2 (UniProt Q5JTZ9) | inactive: 0.044 |
| ABCC1 (UniProt P33527) | inactive: 0.035 |
| ACLY (UniProt P53396) | inactive: 0.042 |
| ACTL6A (UniProt O96019) | inactive: 0.066 |
| ACADSB (UniProt P45954) | inactive: 0.015 |
| ACTA1 (UniProt P68133) | inactive: 0.009 |
| ABHD11 (UniProt Q8NFV4) | inactive: 0.136 |
| ACACB (UniProt O00763) | inactive: 0.025 |
| ACSM3 (UniProt Q53FZ2) | inactive: 0.091 |
| ABRAXAS2 (UniProt Q15018) | inactive: 0.032 |

compound: Cc1sc2c(c1C)C(c1ccc(Cl)cc1)=N[C@@H](CC(=O)OC(C)(C)C)c1nnc(C)n1-2; assay: as above
Outline: as §1

| Target | log2 fold change |
| --- | --- |
| ABI2 (UniProt Q9NYB9) | inactive: -0.034 |
| ACTR3 (UniProt P61158) | inactive: -0.006 |
| AASDH (UniProt Q4L235) | inactive: -0.05 |
| ABCE1 (UniProt H0Y990) | inactive: -0.019 |
| AARSD1 isoform 3 (UniProt Q9BTE6) | inactive: 0.047 |
| ABCF1 (UniProt Q8NE71) | inactive: 0.094 |
| ACAA1 (UniProt P09110) | inactive: -0.005 |
| AAMDC (UniProt Q9H7C9) | inactive: -0.137 |
| ACOT13 (UniProt Q9NPJ3) | inactive: -0.014 |
| ACTB, A0A2R8YEA7 | inactive: -0.098 |
| ACSF3 (UniProt Q4G176) | inactive: -0.067 |
| AAMP (UniProt Q13685) | inactive: -0.032 |
| ADAMTS5 (UniProt Q9UNA0) | inactive: -0.076 |
| ACOT8 (UniProt O14734) | inactive: -0.014 |
| ABCB6 (UniProt Q9NP58) | inactive: -0.049 |
| ACYP1 (UniProt P07311) | inactive: -0.024 |
| AARS (UniProt P49588) | inactive: -0.01 |
| ADAM9 (UniProt Q13443) | inactive: 0.033 |

| Target | log2 fold change |
| --- | --- |
| ABCE1 (UniProt P61221) | inactive: 0.003 |
| ACTL8 (UniProt Q9H568) | inactive: -0.05 |
| ACTN1 (UniProt P12814) | inactive: -0.047 |
| ACAA2 (UniProt P42765) | inactive: -0.03 |
| ADA (UniProt P00813) | inactive: 0.065 |
| ACSS1 (UniProt Q9NUB1) | inactive: 0.09 |
| ADAM17 (UniProt P78536) | inactive: 0.024 |
| ABCD3 (UniProt P28288) | inactive: -0.039 |
| AARS2 (UniProt Q5JTZ9) | inactive: 0.005 |
| ABCC1 (UniProt P33527) | inactive: 0.018 |
| ACLY (UniProt P53396) | inactive: 0.009 |
| ACTL6A (UniProt O96019) | inactive: -0.008 |
| ACADSB (UniProt P45954) | inactive: 0.06 |
| ACTA1 (UniProt P68133) | inactive: 0.005 |
| ABHD11 (UniProt Q8NFV4) | inactive: -0.12 |
| ACACB (UniProt O00763) | inactive: 0.084 |
| ACSM3 (UniProt Q53FZ2) | inactive: -0.03 |
| ABRAXAS2 (UniProt Q15018) | inactive: -0.026 |

compound: c1ccc([C@@H]2C[C@H]2NC2CCNCC2)cc1; assay: as above
Outline: as §1

| Target | log2 fold change |
| --- | --- |
| ABI2 (UniProt Q9NYB9) | inactive: -0.03 |
| ACTR3 (UniProt P61158) | inactive: 0.05 |
| AASDH (UniProt Q4L235) | inactive: 0.037 |
| ABCE1 (UniProt H0Y990) | inactive: 0.068 |
| AARSD1 isoform 3 (UniProt Q9BTE6) | inactive: 0.023 |
| ABCF1 (UniProt Q8NE71) | inactive: -0.026 |
| ACAA1 (UniProt P09110) | inactive: 0.022 |
| AAMDC (UniProt Q9H7C9) | inactive: -0.044 |
| ACOT13 (UniProt Q9NPJ3) | inactive: 0.04 |
| ACTB, A0A2R8YEA7 | inactive: -0.259 |
| ACSF3 (UniProt Q4G176) | inactive: 0.063 |
| AAMP (UniProt Q13685) | inactive: 0.021 |
| ADAMTS5 (UniProt Q9UNA0) | inactive: -0.028 |
| ACOT8 (UniProt O14734) | inactive: -0.027 |
| ABCB6 (UniProt Q9NP58) | inactive: 0.012 |
| ACYP1 (UniProt P07311) | inactive: -0.012 |
| AARS (UniProt P49588) | inactive: -0.014 |
| ADAM9 (UniProt Q13443) | inactive: 0.075 |

| Target | log2 fold change |
| --- | --- |
| ABCE1 (UniProt P61221) | inactive: 0.001 |
| ACTL8 (UniProt Q9H568) | inactive: 0.028 |
| ACTN1 (UniProt P12814) | inactive: 0.012 |
| ACAA2 (UniProt P42765) | inactive: -0.006 |
| ADA (UniProt P00813) | inactive: 0.043 |
| ACSS1 (UniProt Q9NUB1) | inactive: 0.058 |
| ADAM17 (UniProt P78536) | inactive: 0.019 |
| ABCD3 (UniProt P28288) | inactive: -0.033 |
| AARS2 (UniProt Q5JTZ9) | inactive: -0.016 |
| ABCC1 (UniProt P33527) | inactive: 0.005 |
| ACLY (UniProt P53396) | inactive: -0.008 |
| ACTL6A (UniProt O96019) | inactive: -0.001 |
| ACADSB (UniProt P45954) | inactive: -0.04 |
| ACTA1 (UniProt P68133) | inactive: 0.032 |
| ABHD11 (UniProt Q8NFV4) | inactive: -0.037 |
| ACACB (UniProt O00763) | inactive: 0.007 |
| ACSM3 (UniProt Q53FZ2) | inactive: -0.029 |
| ABRAXAS2 (UniProt Q15018) | inactive: 0.019 |
